The target in the assay is rat CCR2 receptor fused to GFP10 (rCCR2-GFP10) (rat) (UniProt O55193). Kind of assay: FRET or BRET. Background: Bioluminescence resonance energy transfer reports proximity on the nanometre scale.

Sequences of proteins named here, by UniProt entry; tags and fusion partners are left off. A change or cut given only in a name is not applied to a line headed by its entry.
UniProt O55193: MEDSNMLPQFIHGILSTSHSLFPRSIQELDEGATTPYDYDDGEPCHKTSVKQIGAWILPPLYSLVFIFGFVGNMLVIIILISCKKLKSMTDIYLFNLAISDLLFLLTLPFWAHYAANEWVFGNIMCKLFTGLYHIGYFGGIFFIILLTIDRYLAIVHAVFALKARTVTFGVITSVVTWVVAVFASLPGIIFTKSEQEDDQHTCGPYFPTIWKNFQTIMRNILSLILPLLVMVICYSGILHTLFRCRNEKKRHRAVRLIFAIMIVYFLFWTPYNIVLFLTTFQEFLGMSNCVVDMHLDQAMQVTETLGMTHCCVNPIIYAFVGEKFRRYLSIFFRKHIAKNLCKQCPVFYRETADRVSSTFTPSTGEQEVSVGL
UniProt P32121: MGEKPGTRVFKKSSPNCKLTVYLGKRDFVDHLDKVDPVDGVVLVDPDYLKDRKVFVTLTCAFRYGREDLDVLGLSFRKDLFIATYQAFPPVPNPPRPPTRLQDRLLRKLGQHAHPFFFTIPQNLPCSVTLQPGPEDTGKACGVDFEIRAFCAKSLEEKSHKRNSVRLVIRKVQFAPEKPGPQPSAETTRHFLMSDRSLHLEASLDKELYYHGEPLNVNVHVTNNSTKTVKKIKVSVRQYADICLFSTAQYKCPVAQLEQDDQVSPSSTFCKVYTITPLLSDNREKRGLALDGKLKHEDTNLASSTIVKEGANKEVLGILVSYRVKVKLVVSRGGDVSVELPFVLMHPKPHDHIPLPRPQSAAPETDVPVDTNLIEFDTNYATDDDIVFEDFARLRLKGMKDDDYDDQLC

No constants are given. Whether binding was seen depends on the method and setting. Binding seen in cells or lysates may run through a third protein. Some results given as binding are weak or reduced against the parent protein; the word gives no strength.

Regarding “β-arrestin-2-RlucII (R393A) (from UniProt P32121 1-409)”, the binding result was “binds”.

For the origin of these results see doi:10.1101/2023.09.15.556569.
